This is one part of the list.
Experiments:
Assay in all cases: log2 fold change, soluble protein after heating vs DMSO (PISA); higher = thermal stabilisation; K562 lysate, 10 uM; active = over 0.2 and 3.5 SD of the protein, either way, in both replicates (recomputed)
crizotinib = compound: C[C@@H](Oc1cc(-c2cnn(C3CCNCC3)c2)cnc1N)c1c(Cl)ccc(F)c1Cl [crizotinib]
Summary of the method: (§1)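 K562 pellets were dounce-homogenised in PBS pH 7.4 containing 1 mM MgCl2, and the crude extract, at 1 mg/mL protein, was exposed to 10 μM compound for 30 min. Aliquots were heated for 3 min across 48°C-58°C, pooled, brought to 0.5% NP-40 at 4°C and spun at 21,000xg for 90 min, with the supernatant taken as soluble protein. TMTpro 16plex LC-MS/MS with equalised channel sums quantified that protein. Values are log-two fold changes in thermal stability relative to solvent controls, taken from duplicates.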

The chains behind the UniProt entries cited, without tags or fusion partners. Where a name states a change or a piece, a line headed by the entry shows the natural chain unless it says otherwise.
UniProt Q96IZ5: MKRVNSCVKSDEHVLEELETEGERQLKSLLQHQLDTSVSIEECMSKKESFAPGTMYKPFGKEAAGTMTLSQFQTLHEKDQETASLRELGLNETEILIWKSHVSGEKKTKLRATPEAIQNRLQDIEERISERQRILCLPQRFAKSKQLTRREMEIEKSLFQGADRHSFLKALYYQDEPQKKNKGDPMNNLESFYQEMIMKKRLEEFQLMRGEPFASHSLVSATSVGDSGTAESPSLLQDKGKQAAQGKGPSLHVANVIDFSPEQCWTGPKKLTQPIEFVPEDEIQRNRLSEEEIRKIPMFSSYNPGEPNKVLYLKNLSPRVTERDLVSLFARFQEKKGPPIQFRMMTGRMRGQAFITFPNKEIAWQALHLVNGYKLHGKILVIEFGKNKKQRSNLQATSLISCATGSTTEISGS
UniProt Q02833: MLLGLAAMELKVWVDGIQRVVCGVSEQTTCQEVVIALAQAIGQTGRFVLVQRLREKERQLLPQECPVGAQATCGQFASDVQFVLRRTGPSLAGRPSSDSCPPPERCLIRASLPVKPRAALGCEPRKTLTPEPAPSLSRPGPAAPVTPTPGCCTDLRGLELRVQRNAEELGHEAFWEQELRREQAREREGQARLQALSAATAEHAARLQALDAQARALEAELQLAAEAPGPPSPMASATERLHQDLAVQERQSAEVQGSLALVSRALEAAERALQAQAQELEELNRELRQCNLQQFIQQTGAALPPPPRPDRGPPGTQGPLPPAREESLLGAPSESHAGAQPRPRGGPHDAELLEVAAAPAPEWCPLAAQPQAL
UniProt Q9Y388: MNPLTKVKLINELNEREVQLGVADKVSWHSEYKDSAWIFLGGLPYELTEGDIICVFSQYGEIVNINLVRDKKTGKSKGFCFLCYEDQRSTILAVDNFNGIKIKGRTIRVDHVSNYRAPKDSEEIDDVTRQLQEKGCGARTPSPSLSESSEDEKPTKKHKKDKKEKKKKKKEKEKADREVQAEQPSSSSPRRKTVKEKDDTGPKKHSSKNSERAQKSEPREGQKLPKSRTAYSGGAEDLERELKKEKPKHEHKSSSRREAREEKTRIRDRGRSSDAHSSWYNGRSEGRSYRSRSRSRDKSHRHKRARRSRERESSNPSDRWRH
UniProt P49795: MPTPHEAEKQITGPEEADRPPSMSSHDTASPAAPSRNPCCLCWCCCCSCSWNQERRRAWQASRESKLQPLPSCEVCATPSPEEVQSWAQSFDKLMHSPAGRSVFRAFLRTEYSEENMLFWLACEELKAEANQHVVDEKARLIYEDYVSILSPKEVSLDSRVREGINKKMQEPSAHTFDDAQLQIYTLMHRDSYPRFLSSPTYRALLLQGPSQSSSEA
UniProt Q04206, whole entry, looked up: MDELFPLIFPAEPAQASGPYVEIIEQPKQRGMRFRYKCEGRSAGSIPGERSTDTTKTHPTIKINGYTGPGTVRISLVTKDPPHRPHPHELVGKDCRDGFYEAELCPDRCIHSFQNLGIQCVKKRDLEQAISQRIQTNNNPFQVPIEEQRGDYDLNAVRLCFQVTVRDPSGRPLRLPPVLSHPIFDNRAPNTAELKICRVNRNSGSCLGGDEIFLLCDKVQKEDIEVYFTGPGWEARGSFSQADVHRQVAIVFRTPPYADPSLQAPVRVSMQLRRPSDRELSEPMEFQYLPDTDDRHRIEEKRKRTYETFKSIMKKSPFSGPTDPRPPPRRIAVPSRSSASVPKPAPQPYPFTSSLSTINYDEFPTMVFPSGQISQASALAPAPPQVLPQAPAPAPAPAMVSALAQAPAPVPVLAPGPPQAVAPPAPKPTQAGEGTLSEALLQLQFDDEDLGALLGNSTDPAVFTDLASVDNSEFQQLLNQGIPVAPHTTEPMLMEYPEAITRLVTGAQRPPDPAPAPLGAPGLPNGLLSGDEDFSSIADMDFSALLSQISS
UniProt Q8IUW5: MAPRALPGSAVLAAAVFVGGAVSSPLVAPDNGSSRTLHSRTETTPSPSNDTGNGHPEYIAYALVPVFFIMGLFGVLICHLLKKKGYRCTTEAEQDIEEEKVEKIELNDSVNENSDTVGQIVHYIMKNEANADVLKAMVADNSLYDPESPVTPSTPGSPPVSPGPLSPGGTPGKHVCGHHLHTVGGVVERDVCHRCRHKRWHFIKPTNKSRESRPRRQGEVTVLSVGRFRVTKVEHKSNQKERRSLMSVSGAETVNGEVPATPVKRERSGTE
UniProt P48380: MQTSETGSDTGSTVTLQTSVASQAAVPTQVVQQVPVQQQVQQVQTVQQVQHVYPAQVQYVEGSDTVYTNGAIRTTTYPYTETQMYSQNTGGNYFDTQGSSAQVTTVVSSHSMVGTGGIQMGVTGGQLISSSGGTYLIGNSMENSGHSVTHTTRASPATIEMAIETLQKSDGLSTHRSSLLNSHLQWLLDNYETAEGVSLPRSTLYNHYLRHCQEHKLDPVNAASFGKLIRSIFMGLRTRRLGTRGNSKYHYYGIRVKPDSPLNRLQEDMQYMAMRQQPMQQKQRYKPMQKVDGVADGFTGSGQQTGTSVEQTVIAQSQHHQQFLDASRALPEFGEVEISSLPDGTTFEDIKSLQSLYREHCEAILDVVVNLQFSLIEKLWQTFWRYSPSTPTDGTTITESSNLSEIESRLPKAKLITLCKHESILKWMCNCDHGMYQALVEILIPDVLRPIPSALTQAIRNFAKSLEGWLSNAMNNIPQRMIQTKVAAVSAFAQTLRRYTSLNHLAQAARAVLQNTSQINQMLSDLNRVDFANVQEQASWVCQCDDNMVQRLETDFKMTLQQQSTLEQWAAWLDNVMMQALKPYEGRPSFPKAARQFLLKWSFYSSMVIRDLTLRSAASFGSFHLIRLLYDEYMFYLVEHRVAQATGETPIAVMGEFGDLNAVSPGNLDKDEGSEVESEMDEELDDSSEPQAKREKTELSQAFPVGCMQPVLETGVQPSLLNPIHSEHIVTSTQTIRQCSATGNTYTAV
UniProt Q5T8P6: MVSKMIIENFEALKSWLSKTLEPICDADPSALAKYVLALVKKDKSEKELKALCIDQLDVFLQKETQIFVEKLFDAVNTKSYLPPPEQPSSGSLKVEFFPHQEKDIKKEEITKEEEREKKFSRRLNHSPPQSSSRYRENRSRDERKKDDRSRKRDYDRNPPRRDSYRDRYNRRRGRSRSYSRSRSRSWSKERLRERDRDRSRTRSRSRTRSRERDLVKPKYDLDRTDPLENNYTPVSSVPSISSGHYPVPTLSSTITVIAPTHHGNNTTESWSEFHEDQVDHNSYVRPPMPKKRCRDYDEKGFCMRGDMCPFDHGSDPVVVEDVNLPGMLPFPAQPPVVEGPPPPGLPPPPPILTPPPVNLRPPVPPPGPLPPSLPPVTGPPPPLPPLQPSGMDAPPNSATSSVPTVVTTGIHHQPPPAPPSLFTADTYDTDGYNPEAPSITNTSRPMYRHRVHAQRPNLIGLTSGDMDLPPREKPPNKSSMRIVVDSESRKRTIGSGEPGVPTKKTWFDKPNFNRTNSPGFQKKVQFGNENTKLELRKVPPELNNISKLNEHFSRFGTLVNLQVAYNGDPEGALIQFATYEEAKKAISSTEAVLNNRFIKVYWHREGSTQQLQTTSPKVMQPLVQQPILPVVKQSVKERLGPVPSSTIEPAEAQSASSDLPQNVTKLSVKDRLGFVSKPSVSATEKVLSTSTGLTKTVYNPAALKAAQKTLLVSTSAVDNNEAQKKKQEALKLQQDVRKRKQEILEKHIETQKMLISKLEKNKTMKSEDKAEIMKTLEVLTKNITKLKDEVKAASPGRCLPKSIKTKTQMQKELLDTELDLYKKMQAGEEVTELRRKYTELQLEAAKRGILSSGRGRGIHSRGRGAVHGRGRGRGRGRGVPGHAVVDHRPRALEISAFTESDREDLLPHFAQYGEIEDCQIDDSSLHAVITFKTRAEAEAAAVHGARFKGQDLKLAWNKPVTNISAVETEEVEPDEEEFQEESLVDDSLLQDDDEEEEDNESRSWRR
UniProt Q09028, whole entry, looked up: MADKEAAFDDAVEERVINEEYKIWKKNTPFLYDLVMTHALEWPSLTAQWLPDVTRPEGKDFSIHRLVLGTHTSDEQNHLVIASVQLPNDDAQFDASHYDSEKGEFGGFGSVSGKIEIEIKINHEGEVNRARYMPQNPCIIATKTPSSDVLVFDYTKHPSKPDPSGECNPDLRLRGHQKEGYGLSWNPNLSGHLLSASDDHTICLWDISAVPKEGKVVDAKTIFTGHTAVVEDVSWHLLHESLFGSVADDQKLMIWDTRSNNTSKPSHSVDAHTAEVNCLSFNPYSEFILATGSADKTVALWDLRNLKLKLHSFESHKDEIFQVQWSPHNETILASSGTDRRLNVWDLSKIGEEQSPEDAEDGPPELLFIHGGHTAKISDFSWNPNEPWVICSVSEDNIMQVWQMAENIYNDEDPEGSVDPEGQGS
UniProt Q16576, whole entry, looked up: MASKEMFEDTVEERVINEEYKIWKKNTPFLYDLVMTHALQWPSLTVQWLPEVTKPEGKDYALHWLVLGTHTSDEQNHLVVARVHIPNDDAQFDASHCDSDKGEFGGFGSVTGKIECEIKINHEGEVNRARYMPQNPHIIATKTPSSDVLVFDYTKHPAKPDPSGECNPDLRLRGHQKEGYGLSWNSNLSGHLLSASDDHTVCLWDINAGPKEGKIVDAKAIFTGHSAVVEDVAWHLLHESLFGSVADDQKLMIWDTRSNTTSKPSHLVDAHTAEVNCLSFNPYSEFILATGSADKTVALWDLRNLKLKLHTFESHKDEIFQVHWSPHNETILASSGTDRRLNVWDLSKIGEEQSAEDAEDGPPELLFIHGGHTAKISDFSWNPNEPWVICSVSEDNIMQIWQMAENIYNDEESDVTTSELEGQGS
UniProt Q96E39: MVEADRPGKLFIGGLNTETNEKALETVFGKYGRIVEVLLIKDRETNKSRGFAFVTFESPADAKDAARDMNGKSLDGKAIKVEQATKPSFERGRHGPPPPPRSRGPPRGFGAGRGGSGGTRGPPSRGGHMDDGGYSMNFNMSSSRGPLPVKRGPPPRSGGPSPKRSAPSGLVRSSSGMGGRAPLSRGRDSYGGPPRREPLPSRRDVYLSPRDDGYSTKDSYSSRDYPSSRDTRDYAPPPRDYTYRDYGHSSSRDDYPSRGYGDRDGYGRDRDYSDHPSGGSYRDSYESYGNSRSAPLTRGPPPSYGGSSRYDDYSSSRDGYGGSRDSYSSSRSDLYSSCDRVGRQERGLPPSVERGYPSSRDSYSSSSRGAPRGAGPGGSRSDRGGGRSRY
UniProt Q9BWF3: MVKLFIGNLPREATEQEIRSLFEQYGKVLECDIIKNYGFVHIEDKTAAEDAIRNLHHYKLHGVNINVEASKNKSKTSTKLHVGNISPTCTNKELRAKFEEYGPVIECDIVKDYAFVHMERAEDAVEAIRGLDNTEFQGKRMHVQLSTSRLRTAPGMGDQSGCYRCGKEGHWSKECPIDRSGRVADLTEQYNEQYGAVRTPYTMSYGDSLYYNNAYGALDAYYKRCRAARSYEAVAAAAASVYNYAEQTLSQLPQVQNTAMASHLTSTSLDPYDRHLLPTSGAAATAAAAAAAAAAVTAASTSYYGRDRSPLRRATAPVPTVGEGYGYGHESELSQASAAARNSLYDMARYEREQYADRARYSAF
UniProt Q9BQ04: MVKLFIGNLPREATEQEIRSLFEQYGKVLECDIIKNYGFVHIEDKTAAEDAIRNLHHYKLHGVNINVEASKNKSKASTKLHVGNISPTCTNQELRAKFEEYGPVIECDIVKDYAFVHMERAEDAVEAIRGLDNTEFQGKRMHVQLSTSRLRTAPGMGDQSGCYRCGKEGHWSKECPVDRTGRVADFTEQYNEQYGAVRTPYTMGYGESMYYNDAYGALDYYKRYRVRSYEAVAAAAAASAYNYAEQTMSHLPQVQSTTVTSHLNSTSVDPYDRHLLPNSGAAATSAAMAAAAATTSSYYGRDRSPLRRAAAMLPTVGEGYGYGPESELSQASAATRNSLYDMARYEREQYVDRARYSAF
UniProt Q8IUH3: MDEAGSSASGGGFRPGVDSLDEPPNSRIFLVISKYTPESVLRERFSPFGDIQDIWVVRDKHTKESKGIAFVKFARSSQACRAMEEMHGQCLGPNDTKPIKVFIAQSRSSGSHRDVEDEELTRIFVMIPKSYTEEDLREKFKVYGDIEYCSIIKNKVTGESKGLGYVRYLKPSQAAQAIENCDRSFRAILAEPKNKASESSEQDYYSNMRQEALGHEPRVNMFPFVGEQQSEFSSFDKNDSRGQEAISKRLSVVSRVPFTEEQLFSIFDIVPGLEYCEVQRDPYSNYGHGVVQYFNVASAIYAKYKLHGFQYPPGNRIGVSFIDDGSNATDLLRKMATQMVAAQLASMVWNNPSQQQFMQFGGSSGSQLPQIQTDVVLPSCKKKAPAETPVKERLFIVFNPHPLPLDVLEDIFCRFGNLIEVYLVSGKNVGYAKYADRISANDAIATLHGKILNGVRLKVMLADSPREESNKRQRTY

doramapimod = compound: Cc1ccc(-n2nc(C(C)(C)C)cc2NC(=O)Nc2ccc(OCCN3CCOCC3)c3ccccc23)cc1 [doramapimod]
Summary of the method: as §1

alisertib = compound: COc1cc(Nc2ncc3c(n2)-c2ccc(Cl)cc2C(c2c(F)cccc2OC)=NC3)ccc1C(=O)O [alisertib]
Summary of the method: as §1

gefitinib = compound: COc1cc2ncnc(Nc3ccc(F)c(Cl)c3)c2cc1OCCCN1CCOCC1 [gefitinib]
Summary of the method: as §1

pictilisib = compound: CS(=O)(=O)N1CCN(Cc2cc3nc(-c4cccc5[nH]ncc45)nc(N4CCOCC4)c3s2)CC1 [pictilisib]
Summary of the method: as §1

bafetinib = compound: Cc1ccc(NC(=O)c2ccc(CN3CC[C@H](N(C)C)C3)c(C(F)(F)F)c2)cc1Nc1nccc(-c2cncnc2)n1 [bafetinib]
Summary of the method: as §1

alvocidib = compound: CN1CC[C@H](c2c(O)cc(O)c3c(=O)cc(-c4ccccc4Cl)oc23)[C@H](O)C1 [alvocidib]
Summary of the method: as §1

[1] = compound: C[C@H](C1=CC=C(C=C1)C(=O)NC2=C3C=CNC3=NC=C2)N
Summary of the method: as §1

gandotinib = compound: Cc1cc(Nc2cc(CN3CCOCC3)c3nc(C)c(Cc4ccc(Cl)cc4F)n3n2)n[nH]1 [gandotinib]
Summary of the method: as §1

[2] = compound: Cc1cccc(CC(=O)N2CCc3c2ccc(-c2cn(C)c4ncnc(N)c24)c3F)n1
Summary of the method: as §1

[3] = compound: CNC(=O)C1=CC=CC=C1NC2=NC(=NC=C2Cl)NC3=C(C=C(C=C3)N4CCOCC4)OC
Summary of the method: as §1

defactinib = compound: CNC(=O)c1ccc(Nc2ncc(C(F)(F)F)c(NCc3nccnc3N(C)S(C)(=O)=O)n2)cc1 [defactinib]
Summary of the method: as §1

[4] = compound: CNc1nc(-c2ccc3c(N)n[nH]c3c2)cc(N2C[C@@H](C(=O)NC3CCCCC3)CC[C@H]2C)n1
Summary of the method: as §1

[5] = compound: COc1cc2nc(-c3cc(F)ccc3O)nc(N[C@@H]3CNC[C@H]3C(C)(C)O)c2cc1OC
Summary of the method: as §1

lapatinib = compound: CS(=O)(=O)CCNCc1ccc(-c2ccc3ncnc(Nc4ccc(OCc5cccc(F)c5)c(Cl)c4)c3c2)o1 [lapatinib]
Summary of the method: as §1

duvelisib = compound: C[C@H](Nc1ncnc2nc[nH]c12)c1cc2cccc(Cl)c2c(=O)n1-c1ccccc1 [duvelisib]
Summary of the method: as §1

Tubastatin A = compound: CN1CCc2c(c3ccccc3n2Cc2ccc(C(=O)NO)cc2)C1 [Tubastatin A]
Summary of the method: as §1

encorafenib = compound: COC(=O)N[C@@H](C)CNc1nccc(-c2cn(C(C)C)nc2-c2cc(Cl)cc(NS(C)(=O)=O)c2F)n1 [encorafenib]
Summary of the method: as §1

[6] = compound: COC(=O)[C@H](CCSC)NC(=O)C1=C(C=C(C=C1)NC[C@H](CS)N)C2=CC=CC=C2
Summary of the method: as §1

tozasertib = compound: Cc1cc(Nc2cc(N3CCN(C)CC3)nc(Sc3ccc(NC(=O)C4CC4)cc3)n2)n[nH]1 [tozasertib]
Summary of the method: as §1

Measured: log2 fold change

RGPD6 (UniProt H7BZ48)
inactive: crizotinib 0.043 | doramapimod -0.121

RBM41 (UniProt Q96IZ5)
inactive: alisertib 0.066 | gefitinib -0.116 | pictilisib -0.133 | bafetinib -0.23

RASSF7 (UniProt Q02833)
inactive: alvocidib 0.027 | alisertib -0.084 | gefitinib 0.089 | pictilisib -0.073 | crizotinib -0.021 | [1] -0.05 | gandotinib -0.055 | doramapimod -0.059 | bafetinib -0.239 | [2] 0.063

RBMX2 (UniProt Q9Y388)
inactive: [3] -0.018 | defactinib -0.006 | [4] 0.061 | [5] 0 | lapatinib 0.064 | duvelisib -0.186

RGS19 (UniProt P49795)
inactive: alvocidib -0.012 | alisertib -0.005 | gefitinib -0.019 | crizotinib -0.098 | [1] -0.065 | gandotinib 0.028 | doramapimod -0.075 | [2] -0.19

RASGRP2 isoform 2 (UniProt Q7LDG7)
inactive: alisertib 0.118 | gefitinib -0.026

RELA (UniProt Q04206)
inactive: Tubastatin A -0.094 | [3] 0.019 | defactinib 0.02 | [4] 0.015 | encorafenib 0.018 | [6] 0.01 | alisertib 0.028 | [5] -0.033 | gefitinib 0.016 | lapatinib 0.007 | pictilisib -0.025 | crizotinib -0.062 | [1] -0.029 | duvelisib 0.016 | gandotinib 0.073 | tozasertib -0.008 | bafetinib -0.064 | [2] 0.062

RELL1 (UniProt Q8IUW5)
inactive: [3] 0.108 | crizotinib -0.071 | doramapimod -0.067

RFX3 (UniProt P48380)
inactive: alvocidib 0.036 | [4] 0.122 | encorafenib -0.056 | [6] 0.025 | alisertib -0.309 | gefitinib -0.235 | pictilisib 0.048 | [1] -0.108 | duvelisib 0.041 | gandotinib -0.07 | tozasertib -0.063 | bafetinib -0.011 | [2] 0.146

2 successive entries out of the list so far, quoted:
RBMX2 (UniProt Q9Y388)
inactive: [3] -0.018 | defactinib -0.006 | [4] 0.061 | [5] 0 | lapatinib 0.064 | duvelisib -0.186

RGS19 (UniProt P49795)
inactive: alvocidib -0.012 | alisertib -0.005 | gefitinib -0.019 | crizotinib -0.098 | [1] -0.065 | gandotinib 0.028 | doramapimod -0.075 | [2] -0.19

Additional records.

RBP4 (UniProt P02753)
inactive: alvocidib -0.085 | pictilisib 0.014 | crizotinib -0.074 | [1] -0.109 | gandotinib 0.146 | doramapimod 0.056 | bafetinib 0.062 | [2] 0.056

RBM26 isoform 3 (UniProt Q5T8P6)
inactive: Tubastatin A -0.069 | [3] -0.092 | defactinib -0.05 | [4] -0.007 | encorafenib -0.044 | [6] -0.071 | alisertib 0.073 | [5] 0.128 | gefitinib -0.062 | lapatinib -0.098 | pictilisib -0.016 | crizotinib -0.01 | duvelisib 0.026 | tozasertib -0.105 | doramapimod -0.08 | bafetinib 0.079

RELCH (UniProt Q9P260)
inactive: defactinib -0.121 | [4] -0.113 | [5] 0.092 | lapatinib 0.07 | crizotinib -0.034 | duvelisib 0.15 | doramapimod 0.016

RBBP7 (UniProt C9J7L0)
inactive: alisertib 0.089 | gefitinib -0.058

RBBP4 isoform 2 (UniProt Q09028)
inactive: [5] -0.003 | lapatinib -0.003 | pictilisib 0.002 | bafetinib -0.06

RBBP7 (UniProt Q16576)
inactive: Tubastatin A -0.005 | [3] 0.006 | defactinib -0.018 | [4] -0.125 | encorafenib 0.032 | [6] -0.021 | alisertib 0.014 | [5] -0.003 | gefitinib 0.006 | lapatinib 0.001 | pictilisib 0.007 | crizotinib 0.026 | duvelisib 0.02 | tozasertib 0.073 | doramapimod -0.036 | bafetinib -0.072

RFX2 (UniProt P48378)
inactive: alvocidib -0.107 | [4] -0.088 | [5] 0.124 | lapatinib 0.076 | pictilisib -0.079 | crizotinib -0.061 | [1] -0.024 | duvelisib -0.183 | gandotinib 0.079 | doramapimod -0.014 | bafetinib 0.089 | [2] -0.069

REV3L (UniProt O60673)
inactive: Tubastatin A 0.053 | [3] -0.028 | defactinib -0.051 | [4] 0.312 | encorafenib -0.072 | [6] -0.124 | alisertib 0.039 | [5] 0.247 | gefitinib -0.148 | lapatinib -0.047 | pictilisib -0.089 | crizotinib -0.086 | duvelisib 0.037 | tozasertib -0.315 | doramapimod 0.251 | bafetinib -0.139

RBMXL1 (UniProt Q96E39)
inactive: defactinib 0.039 | [4] 0.117 | encorafenib -0.008 | [6] -0.072 | crizotinib 0.016 | duvelisib 0.108 | tozasertib 0.016 | doramapimod 0.084

RBM4 isoform 3 (UniProt Q9BWF3)
inactive: crizotinib 0.114 | doramapimod 0.016

REST (UniProt Q13127)
inactive: Tubastatin A -0.021 | [3] -0.097 | defactinib -0.063 | [4] 0.002 | [5] 0.029 | lapatinib 0.01 | crizotinib -0.074 | duvelisib -0.021 | doramapimod -0.053

RBM4B (UniProt Q9BQ04)
inactive: crizotinib -0.007 | doramapimod 0.13

RBM45 (UniProt Q8IUH3)
inactive: alvocidib 0.013 | alisertib -0.136 | [5] 0.055 | gefitinib -0.03 | lapatinib -0.12 | crizotinib -0.094 | [1] 0.184 | gandotinib -0.1 | doramapimod 0.014 | [2] 0.077

RESF1 (UniProt Q9HCM1)
inactive: Tubastatin A -0.016 | [4] -0.048 | encorafenib 0.021 | [6] 0.137 | crizotinib 0.099 | duvelisib -0.001 | tozasertib 0.065 | doramapimod -0.349

Source: the supplement of paper PMC10849652
